Assay results published in patent US11300640B2, “Protein reporters for ultrasensitive detection methods” (The Trustees of the University of Pennsylvania, priority 2017, dated 2022).
“And” between values parts separate entries of the source, which are not always exact repeats. Equal values may be shown once.

Test: 129Xe hyper-CEST NMR of purified MBP and MBP mutants
Conditions: PBS

maltose binding protein [MBP]
Xe(aq) peak width (FWHM) (80 μM MBP, 1 mM βCD): 60 ppm and 60 ± 2 ppm | Xe(aq) peak width (FWHM) (80 μM protein, 1 mM maltose): 47 ppm and 47 ± 2 ppm | Xe@MBP peak width (FWHM) (80 μM protein, 1 mM maltose): 35 ppm and 35 ± 2 ppm | Xe(aq) peak width (FWHM) (80 μM protein, 1 mM maltose, listed as WT MBP): 47 ppm | Xe(aq) peak width (FWHM) (80 μM protein, no maltose): 42 ± 2 ppm | Xe(aq) peak width (FWHM) (80 μM protein, no maltose, listed as WT MBP): 41.8 ppm
